Measurements published in PMC8027439.
Results are given in words; binding and its absence hold for the method and conditions named. In cells and extracts the contact can be indirect. These calls come from enrichment with a bait or labelling near it, and not all partners need be listed. Tags and fused reporters may be left off the sequences shown.

Amino acid sequences for entries named in this document (tags omitted).
UniProt O00327: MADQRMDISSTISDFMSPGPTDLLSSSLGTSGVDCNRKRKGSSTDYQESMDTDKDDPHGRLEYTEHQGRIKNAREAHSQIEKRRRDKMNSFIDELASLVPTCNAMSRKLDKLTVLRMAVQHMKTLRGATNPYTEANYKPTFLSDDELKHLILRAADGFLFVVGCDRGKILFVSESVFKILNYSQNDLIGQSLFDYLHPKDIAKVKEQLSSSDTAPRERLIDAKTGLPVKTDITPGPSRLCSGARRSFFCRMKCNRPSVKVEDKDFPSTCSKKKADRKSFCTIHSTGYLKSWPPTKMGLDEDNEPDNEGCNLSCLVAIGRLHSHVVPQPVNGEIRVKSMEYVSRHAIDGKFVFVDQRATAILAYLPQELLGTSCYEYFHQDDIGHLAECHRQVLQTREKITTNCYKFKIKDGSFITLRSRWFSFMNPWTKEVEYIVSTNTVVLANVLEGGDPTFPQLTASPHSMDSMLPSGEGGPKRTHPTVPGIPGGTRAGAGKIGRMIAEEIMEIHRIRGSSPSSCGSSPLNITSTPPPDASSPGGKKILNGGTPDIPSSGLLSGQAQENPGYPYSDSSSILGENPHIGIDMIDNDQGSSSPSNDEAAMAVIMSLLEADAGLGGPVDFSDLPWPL
UniProt Q13263: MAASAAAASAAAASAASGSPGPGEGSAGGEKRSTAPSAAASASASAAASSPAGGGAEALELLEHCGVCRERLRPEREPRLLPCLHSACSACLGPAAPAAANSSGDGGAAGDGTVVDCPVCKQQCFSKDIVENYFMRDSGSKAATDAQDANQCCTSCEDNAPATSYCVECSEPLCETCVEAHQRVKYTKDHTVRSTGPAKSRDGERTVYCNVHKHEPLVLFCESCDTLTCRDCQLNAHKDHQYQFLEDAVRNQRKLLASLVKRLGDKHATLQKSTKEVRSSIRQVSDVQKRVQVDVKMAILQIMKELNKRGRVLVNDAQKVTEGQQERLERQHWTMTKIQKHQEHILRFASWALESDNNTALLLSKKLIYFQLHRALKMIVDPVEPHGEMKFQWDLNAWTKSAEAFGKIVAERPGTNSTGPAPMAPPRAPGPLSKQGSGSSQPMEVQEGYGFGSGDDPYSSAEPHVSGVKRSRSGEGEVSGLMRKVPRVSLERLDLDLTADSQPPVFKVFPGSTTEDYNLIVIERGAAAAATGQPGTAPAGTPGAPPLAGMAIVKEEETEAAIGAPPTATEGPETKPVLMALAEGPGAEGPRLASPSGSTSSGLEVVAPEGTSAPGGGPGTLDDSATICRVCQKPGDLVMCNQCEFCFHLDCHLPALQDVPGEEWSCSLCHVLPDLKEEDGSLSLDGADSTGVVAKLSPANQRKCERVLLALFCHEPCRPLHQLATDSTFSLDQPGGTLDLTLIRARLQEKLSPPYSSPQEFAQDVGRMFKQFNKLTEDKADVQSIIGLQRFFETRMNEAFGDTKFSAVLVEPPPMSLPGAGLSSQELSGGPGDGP
UniProt Q14739: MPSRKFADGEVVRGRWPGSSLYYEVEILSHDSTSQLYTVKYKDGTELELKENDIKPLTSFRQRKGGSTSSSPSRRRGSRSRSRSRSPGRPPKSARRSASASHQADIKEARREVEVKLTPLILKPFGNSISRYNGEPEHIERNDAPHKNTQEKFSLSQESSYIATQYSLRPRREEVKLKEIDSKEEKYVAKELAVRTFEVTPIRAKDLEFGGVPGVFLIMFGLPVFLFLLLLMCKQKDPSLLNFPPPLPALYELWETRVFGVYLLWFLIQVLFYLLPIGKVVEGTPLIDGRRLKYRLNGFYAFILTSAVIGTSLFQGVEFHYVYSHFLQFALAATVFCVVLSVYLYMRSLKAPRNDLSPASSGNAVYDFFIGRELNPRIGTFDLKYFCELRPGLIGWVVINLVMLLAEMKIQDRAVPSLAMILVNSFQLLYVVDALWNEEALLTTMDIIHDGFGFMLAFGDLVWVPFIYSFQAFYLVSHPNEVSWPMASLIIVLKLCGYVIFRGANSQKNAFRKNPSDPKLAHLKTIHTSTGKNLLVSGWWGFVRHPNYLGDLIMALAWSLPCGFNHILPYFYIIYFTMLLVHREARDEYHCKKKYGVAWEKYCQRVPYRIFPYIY

T1: Flag-tagged CLOCK (full-length, wild type) (human) (UniProt O15516)
T1 sequence: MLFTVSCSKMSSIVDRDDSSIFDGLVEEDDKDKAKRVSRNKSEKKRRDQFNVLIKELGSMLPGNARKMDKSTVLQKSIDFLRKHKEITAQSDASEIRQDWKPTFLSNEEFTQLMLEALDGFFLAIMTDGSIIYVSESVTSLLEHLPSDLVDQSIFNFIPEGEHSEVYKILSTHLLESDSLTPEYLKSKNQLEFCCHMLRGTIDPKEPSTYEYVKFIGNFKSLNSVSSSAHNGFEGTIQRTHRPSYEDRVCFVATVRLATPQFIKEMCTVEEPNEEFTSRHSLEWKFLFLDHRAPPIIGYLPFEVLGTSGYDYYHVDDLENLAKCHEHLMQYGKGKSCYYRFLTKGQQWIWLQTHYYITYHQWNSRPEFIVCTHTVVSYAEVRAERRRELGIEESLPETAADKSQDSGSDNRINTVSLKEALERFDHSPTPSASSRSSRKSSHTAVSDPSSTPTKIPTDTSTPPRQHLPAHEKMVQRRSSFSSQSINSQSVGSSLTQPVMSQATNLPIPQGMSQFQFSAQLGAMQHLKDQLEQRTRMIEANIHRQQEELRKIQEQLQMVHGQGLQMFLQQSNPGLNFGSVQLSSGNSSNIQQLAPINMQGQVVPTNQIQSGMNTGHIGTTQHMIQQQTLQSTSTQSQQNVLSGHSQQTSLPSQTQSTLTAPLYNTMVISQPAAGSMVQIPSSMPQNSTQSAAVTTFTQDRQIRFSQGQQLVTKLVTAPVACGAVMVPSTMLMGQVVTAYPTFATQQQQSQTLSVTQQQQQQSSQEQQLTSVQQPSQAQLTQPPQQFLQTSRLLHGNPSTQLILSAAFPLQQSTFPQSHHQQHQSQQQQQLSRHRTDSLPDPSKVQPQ

B1: CIPC, circadian clock protein (protein, UniProt Q9C0C6 1-399)
chain: MERKNPSRESPRRLSAKVGKGTEMKKVARQLGMAAAESDKDSGFSDGSSECLSSAEQMESEDMLSALGWSREDRPRQNSKTAKNAFPTLSPMVVMKNVLVKQGSSSSQLQSWTVQPSFEVISAQPQLLFLHPPVPSPVSPCHTGEKKSDSRNYLPILNSYTKIAPHPGKRGLSLGPEEKGTSGVQKKICTERLGPSLSSSEPTKAGAVPSSPSTPAPPSAKLAEDSALQGVPSLVAGGSPQTLQPVSSSHVAKAPSLTFASPASPVCASDSTLHGLESNSPLSPLSANYSSPLWAAEHLCRSPDIFSEQRQSKHRRFQNTLVVLHKSGLLEITLKTKELIRQNQATQVELDQLKEQTQLFIEATKSRAPQAWAKLQASLTPGSSNTGSDLEAFSDHPAI

Molecular target: T1, Flag-tagged CLOCK (full-length, wild type) (human)
Experiment: affinity purification with mass spectrometry; Flag-tagged CLOCK expressed in HEK293T cells, immunoprecipitation with an anti-Flag antibody, gel bands digested with trypsin, nanoLC-MS/MS; Flag-luciferase as negative control

binding, binds:
BMAL1, circadian clock protein (from UniProt O00327 1-626)
KAP1, heterochromatin-associated protein (from UniProt Q13263 1-835)
LBR, nuclear lamina protein (from UniProt Q14739 1-615)
B1
